In patent US20030144205A1 one finds binding data, which are given here for 2 molecules.

No constants are given. Whether binding was seen depends on the method and setting. Binding seen in cells or lysates may run through a third protein. Some binding calls cover weakened binding; strength is not graded here. For some assays here: Sequences can lack the tags named with a protein.

Assay [1] deals with T1, mouse RFPL4, full-length (amino acid residues 1-287) (mouse) (UniProt Q8VH31).
T1 sequence (looked up): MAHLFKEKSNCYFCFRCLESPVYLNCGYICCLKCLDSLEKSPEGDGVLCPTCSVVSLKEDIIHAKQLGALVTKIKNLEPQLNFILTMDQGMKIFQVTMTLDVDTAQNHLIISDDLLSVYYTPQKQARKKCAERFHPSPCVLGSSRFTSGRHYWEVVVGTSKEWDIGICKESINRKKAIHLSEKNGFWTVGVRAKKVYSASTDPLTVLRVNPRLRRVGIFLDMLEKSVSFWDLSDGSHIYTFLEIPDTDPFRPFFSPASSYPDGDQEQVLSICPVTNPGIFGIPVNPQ
Kind of assay: in vitro translation and co-immunoprecipitation.

The target in assay [2] is T1, mouse RFPL4, full-length (amino acid residues 1-287) (mouse). Put plainly: co-immunoprecipitation of 35S-labelled proteins translated in vitro (anti-HA or anti-MYC).

B1: Solute carrier family 25, member 5 (SLC25A5) (protein, mouse, UniProt P51881 1-298, looked up)
chain: MTDAAVSFAKDFLAGGVAAAISKTAVAPIERVKLLLQVQHASKQITADKQYKGIIDCVVRIPKEQGVLSFWRGNLANVIRYFPTQALNFAFKDKYKQIFLGGVDKRTQFWRYFAGNLASGGAAGATSLCFVYPLDFARTRLAADVGKAGAEREFKGLGDCLVKIYKSDGIKGLYQGFNVSVQGIIIYRAAYFGIYDTAKGMLPDPKNTHIFISWMIAQSVTAVAGLTSYPFDTVRRRMMMQSGRKGTDIMYTGTLDCWRKIARDEGSKAFFKGAWSNVLRGMGGAFVLVLYDEIKKYT
Take B1: in assay [1], the binding result was “no binding”.

B2: ZAR1 (HA-tagged) (protein, UniProt Q80SU3 1-361, looked up)
chain: MFPASTFHPCPHPYPQATKAGDGWRFGARGCRPAPPSFLPGYRQLMAAEYVDSHQRAQLMALLSRMGPRSVSSRDAAVQVNPRRDASVQCSLGRRTLQPAGCRASPDARSGSCQPRGHAGAGRSPRSWQTVAPFSSVTFCGLSSSLEVAGGRQTPTKGEGSPASSGTREPEPREVAARKAVPQPRSEEGDVQAAGQAGWEQQPPPEDRNSVAAMQSEPGSEEPCPAAEMAQDPGDSDAPRDQASPQSTEQDKERLRFQFLEQKYGYYHCKDCKIRWESAYVWCVQGTSKVYFKQFCRVCEKSYNPYRVEDITCQSCKRTRCACPVRLRHVDPKRPHRQDLCGRCKDKRLSCDSTFSFKYII
For B2, the binding result in assay [2] was “binds”.
